Measurements from the supplement of paper PMC10849652.
This is one part of the list.

By UniProt entry, the sequences of proteins in these tests, tags left out. Where a name states a change or a piece, a line headed by the entry shows the natural chain unless it says otherwise.
UniProt Q9NWS8: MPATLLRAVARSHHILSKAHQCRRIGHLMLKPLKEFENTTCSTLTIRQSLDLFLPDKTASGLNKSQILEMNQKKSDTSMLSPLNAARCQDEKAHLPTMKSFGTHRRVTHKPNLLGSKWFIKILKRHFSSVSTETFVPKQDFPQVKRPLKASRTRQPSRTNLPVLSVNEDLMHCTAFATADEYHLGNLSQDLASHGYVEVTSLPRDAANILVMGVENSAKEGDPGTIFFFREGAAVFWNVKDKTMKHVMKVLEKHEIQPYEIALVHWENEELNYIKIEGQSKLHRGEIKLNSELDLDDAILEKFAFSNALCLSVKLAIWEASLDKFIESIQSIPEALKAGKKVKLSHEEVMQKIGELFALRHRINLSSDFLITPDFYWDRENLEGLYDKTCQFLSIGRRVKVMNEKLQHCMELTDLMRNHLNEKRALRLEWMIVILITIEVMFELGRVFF
UniProt P62877, whole entry, looked up: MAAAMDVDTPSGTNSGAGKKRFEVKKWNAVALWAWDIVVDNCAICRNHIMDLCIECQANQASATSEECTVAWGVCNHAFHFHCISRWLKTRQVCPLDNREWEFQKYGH
UniProt P35250, whole entry, looked up: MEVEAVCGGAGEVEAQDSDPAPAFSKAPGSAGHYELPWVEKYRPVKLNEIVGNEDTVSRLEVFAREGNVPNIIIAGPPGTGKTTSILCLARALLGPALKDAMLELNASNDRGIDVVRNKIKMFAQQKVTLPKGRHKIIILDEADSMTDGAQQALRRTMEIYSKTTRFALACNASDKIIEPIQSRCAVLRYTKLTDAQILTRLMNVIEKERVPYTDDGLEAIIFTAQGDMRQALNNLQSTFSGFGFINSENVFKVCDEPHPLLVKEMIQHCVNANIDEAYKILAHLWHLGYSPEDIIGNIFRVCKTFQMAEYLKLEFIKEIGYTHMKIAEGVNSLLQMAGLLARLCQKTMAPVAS
UniProt O00287: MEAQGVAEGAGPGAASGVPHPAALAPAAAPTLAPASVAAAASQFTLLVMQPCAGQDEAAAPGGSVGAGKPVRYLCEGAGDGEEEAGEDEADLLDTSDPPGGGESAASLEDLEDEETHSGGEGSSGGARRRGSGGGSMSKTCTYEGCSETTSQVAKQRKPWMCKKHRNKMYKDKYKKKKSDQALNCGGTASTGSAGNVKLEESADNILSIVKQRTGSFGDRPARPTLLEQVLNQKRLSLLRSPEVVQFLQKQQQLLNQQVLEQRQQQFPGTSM
UniProt Q5TC82: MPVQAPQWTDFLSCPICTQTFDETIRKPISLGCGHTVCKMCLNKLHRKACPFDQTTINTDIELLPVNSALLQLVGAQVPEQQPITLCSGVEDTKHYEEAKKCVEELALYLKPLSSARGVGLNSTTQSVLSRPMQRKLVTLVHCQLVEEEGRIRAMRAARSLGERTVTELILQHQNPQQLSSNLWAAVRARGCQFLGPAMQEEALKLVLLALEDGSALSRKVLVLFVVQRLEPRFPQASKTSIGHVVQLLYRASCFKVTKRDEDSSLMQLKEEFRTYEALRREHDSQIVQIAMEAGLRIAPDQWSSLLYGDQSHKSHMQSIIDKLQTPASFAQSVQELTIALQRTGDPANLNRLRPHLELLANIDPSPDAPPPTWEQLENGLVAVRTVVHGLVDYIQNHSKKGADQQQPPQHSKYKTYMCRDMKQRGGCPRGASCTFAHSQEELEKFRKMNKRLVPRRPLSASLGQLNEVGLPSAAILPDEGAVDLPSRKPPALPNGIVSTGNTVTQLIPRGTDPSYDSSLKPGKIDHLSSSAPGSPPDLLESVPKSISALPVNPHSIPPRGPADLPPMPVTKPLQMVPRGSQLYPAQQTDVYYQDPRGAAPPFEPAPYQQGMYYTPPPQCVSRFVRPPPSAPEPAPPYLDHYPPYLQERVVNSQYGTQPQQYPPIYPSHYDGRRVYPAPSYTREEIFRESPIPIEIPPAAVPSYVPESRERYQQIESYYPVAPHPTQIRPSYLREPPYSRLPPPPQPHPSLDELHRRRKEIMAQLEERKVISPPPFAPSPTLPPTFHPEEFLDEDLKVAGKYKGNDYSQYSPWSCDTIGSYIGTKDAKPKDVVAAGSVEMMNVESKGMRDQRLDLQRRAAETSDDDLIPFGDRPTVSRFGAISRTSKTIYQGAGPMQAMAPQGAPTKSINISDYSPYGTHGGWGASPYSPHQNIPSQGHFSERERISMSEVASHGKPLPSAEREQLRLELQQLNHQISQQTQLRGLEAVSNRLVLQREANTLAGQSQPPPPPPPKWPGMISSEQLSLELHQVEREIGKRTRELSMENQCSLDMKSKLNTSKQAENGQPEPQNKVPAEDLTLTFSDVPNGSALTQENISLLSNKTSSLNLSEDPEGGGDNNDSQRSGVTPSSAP
UniProt P78509: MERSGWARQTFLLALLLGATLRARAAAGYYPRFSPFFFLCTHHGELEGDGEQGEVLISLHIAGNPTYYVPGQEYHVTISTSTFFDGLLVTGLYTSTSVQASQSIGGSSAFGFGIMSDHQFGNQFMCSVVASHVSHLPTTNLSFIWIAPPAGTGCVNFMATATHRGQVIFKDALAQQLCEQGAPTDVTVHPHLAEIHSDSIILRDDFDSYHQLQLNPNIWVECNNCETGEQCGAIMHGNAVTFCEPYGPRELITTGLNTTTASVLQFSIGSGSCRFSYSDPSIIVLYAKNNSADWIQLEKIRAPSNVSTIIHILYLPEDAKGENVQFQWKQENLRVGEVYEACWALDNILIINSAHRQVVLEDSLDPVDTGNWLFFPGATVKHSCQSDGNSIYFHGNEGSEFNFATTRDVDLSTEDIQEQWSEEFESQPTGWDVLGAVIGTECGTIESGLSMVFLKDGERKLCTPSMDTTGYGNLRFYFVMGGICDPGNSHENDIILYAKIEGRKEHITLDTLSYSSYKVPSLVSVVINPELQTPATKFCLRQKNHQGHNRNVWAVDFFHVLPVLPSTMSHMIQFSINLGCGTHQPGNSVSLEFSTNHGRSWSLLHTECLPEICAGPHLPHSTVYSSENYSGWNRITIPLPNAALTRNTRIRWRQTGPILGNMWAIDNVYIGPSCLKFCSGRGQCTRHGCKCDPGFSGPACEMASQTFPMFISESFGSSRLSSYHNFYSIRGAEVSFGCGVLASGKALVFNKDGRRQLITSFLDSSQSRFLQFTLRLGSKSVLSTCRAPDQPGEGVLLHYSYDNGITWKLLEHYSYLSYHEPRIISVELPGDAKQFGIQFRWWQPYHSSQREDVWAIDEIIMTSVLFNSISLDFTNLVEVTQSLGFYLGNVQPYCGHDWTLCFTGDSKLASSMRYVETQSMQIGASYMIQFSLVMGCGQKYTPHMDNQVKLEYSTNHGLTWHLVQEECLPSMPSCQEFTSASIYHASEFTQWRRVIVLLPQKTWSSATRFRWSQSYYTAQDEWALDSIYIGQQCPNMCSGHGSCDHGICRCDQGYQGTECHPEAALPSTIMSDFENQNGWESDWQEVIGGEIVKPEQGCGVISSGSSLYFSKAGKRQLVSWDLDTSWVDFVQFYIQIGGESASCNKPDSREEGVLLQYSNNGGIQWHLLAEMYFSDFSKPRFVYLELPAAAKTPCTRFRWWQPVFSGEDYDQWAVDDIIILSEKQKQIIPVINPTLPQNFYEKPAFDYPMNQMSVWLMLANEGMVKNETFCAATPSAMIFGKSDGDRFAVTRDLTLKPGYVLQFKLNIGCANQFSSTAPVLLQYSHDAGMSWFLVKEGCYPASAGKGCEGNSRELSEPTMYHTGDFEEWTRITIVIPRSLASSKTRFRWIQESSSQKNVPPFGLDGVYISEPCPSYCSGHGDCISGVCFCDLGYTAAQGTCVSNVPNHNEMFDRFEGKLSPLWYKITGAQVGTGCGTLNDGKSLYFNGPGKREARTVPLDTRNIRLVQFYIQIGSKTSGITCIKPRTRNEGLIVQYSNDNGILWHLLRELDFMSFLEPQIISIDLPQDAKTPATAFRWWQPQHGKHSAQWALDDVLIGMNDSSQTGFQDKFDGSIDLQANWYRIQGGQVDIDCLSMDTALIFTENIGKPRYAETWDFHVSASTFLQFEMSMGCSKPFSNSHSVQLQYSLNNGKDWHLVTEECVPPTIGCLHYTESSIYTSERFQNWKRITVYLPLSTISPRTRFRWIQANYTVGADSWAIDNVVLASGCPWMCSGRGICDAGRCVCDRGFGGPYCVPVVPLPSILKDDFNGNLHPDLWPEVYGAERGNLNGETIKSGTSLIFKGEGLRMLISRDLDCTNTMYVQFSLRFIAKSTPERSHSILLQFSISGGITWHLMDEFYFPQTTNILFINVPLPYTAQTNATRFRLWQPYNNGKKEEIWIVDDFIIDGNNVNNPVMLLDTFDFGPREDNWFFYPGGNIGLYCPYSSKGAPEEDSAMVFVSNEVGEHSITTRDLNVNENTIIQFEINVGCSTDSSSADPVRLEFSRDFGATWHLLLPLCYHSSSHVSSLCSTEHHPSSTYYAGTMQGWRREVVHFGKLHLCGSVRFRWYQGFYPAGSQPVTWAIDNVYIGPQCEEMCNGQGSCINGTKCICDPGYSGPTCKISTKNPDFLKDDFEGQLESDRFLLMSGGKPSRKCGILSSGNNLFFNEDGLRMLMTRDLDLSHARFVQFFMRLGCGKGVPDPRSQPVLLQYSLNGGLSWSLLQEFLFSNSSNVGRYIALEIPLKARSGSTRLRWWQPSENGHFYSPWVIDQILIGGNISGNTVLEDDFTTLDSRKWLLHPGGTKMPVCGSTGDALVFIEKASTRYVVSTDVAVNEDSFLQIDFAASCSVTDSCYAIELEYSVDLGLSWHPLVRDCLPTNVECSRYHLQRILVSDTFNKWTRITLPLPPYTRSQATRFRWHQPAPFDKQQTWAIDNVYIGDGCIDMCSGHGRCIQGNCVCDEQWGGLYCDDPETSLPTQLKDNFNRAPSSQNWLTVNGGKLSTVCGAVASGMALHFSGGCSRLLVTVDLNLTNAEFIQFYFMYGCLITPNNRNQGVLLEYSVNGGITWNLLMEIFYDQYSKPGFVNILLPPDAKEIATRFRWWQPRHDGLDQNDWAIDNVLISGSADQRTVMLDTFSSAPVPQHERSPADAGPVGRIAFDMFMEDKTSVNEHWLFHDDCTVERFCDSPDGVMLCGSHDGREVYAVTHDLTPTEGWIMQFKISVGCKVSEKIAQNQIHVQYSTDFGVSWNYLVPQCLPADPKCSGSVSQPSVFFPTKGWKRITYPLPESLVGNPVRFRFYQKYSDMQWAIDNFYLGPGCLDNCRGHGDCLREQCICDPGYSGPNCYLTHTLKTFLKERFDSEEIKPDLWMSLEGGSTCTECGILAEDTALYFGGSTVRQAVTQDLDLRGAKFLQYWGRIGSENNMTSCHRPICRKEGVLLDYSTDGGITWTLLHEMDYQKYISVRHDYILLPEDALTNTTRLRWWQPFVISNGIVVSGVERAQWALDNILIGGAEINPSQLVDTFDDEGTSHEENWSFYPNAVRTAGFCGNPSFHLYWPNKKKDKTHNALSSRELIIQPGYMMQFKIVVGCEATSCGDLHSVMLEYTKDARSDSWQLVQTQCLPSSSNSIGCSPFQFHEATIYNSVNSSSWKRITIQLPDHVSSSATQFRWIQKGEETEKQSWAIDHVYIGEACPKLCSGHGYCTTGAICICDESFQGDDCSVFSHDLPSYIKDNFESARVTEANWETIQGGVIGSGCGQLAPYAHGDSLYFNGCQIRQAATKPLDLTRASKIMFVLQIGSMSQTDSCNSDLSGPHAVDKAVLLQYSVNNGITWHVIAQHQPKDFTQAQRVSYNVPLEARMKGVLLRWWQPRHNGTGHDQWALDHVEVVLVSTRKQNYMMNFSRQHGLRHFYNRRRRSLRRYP
UniProt Q96I51, whole entry, looked up: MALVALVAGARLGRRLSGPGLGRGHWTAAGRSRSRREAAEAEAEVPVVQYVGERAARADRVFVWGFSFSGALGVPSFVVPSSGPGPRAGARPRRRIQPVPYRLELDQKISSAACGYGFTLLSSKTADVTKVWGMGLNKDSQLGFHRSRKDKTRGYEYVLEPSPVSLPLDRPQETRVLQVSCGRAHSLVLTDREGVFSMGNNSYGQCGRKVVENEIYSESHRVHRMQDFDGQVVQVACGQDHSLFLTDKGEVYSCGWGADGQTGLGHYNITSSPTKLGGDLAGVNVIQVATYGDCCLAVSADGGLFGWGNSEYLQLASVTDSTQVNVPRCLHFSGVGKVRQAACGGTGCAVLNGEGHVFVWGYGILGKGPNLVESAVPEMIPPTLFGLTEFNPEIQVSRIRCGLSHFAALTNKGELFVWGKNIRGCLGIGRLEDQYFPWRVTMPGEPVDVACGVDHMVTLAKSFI
UniProt Q5TBB1: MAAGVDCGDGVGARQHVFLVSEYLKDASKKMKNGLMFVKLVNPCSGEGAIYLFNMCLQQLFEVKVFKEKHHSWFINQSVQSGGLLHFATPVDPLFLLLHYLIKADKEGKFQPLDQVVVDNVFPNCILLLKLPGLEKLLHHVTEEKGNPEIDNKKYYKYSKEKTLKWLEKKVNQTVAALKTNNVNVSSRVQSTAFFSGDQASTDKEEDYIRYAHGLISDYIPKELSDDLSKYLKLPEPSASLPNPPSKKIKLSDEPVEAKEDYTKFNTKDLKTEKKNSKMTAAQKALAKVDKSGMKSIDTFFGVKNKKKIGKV

compound: c1cn2cc(-c3ccc4cn[nH]c4c3)nc(Nc3ccc(N4CCOCC4)cc3)c2n1 [entospletinib]; assay: log2 fold change, soluble protein after heating vs DMSO (PISA); higher = thermal stabilisation; K562 cells, 10 uM, 30 min; active = over 0.2 and 3.5 SD of the protein, either way, in both replicates (recomputed)
In short: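 Values are thermal stability changes relative to control samples and are taken from duplicates. They are stated as log2 fold changes. Before quantification by TMTpro 16plex LC-MS/MS with equalised channel sums, K562 cells at 2×10^6 cells/mL were treated with 10 μM compound for 30 min, heated in aliquots for 3 min across 48°C-58°C, pooled, extracted in PBS with 0.5% NP-40 at 4°C, and centrifuged at 21,000xg for 90 min to give the soluble supernatant.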

log2 fold change, inactive:
RNF126 (UniProt Q9BV68) 0.066, REEP5 (UniProt Q00765) 0.025, RGN (UniProt Q15493) -0.008, RNF214 (UniProt Q8ND24) -0.049, RNASEH2C (UniProt Q8TDP1) -0.073, RFX1 (UniProt P22670) -0.026, RENBP (UniProt P51606) -0.04, RNF114 (UniProt Q9Y508) 0.022, RCCD1 (UniProt A6NED2) 0.007, RMND1 (UniProt Q9NWS8) 0.086, RIDA (UniProt P52758) 0.017, RBX1 (UniProt P62877) -0.033, RFESD isoform 2 (UniProt Q8TAC1) 0.013, RLIM (UniProt Q9NVW2) -0.122, RFC2 (UniProt P35250) -0.063, RHOT1 isoform 3 (UniProt Q8IXI2) -0.023, RFXAP (UniProt O00287) -0.018, RC3H1 (UniProt Q5TC82) 0.156, RNF146 (UniProt Q9NTX7) 0.057, RELN (UniProt P78509) 0.015, RCN2 isoform 2 (UniProt Q14257) -0.027, RNF149 (UniProt Q8NC42) -0.016, RBM7 (UniProt Q9Y580) 0.025, RCC1L (UniProt Q96I51) -0.005, RNASEH2B (UniProt Q5TBB1) -0.086, RCC2 (UniProt Q9P258) 0.005, RMND5A (UniProt Q9H871) 0.028, RIOX1 (UniProt Q9H6W3) 0.139, RNF20 (UniProt Q5VTR2) 0.027, RCSD1 (UniProt Q6JBY9) 0.033
